From the supplement of paper PMC6411743
± gives the standard deviation of the averaged measurements. The entries are a selection whose mix differs from that of the whole data set. Small differences around the control level are noise.

Protein sequences, listed by entry. Tags and fused reporters are not part of them. Lines headed by an entry give the natural chain unless they say otherwise; changes in a name come on top.
UniProt Q9H6W3: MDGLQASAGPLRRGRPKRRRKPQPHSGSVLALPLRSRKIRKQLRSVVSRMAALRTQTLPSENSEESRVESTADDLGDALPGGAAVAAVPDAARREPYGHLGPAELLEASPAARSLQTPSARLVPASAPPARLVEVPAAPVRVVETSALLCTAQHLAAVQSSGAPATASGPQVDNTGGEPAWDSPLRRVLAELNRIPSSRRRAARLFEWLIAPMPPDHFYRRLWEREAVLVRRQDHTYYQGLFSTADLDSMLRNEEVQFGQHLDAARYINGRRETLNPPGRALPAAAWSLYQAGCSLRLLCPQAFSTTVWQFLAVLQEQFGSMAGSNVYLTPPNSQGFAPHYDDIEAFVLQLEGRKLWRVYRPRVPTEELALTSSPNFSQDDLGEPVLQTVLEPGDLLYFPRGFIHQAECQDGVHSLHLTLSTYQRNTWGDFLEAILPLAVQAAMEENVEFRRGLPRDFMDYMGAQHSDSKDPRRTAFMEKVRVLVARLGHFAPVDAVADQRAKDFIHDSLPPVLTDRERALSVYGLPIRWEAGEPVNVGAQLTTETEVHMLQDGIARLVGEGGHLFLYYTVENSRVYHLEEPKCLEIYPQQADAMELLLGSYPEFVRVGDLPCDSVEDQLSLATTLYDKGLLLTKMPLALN
UniProt Q9HDC9: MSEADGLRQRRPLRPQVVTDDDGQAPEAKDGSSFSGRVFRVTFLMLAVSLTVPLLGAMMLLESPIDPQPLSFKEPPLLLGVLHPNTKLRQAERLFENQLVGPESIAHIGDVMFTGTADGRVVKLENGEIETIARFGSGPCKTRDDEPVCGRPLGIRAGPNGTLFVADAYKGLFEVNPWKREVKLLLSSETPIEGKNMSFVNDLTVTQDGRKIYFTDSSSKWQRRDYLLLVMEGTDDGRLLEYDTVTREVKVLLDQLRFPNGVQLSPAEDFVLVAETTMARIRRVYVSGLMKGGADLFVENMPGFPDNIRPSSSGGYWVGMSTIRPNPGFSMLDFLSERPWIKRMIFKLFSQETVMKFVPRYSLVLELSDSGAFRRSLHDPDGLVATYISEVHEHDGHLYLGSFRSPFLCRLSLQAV
UniProt Q9H1D9: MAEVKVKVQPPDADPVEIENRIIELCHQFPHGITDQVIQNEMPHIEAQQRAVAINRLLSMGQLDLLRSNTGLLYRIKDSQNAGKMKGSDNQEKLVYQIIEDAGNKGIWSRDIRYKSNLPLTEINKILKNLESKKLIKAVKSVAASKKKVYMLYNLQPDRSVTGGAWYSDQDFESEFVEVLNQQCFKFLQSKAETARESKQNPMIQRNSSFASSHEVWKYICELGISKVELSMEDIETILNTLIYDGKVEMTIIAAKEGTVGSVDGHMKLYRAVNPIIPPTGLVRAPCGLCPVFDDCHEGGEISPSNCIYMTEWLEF

Compound: Nc1ncnc2c1ncn2[C@@H]1O[C@H](COP(=O)(O)OP(=O)(O)OP(=O)(O)O)[C@@H](O)[C@H]1O [adenosine triphosphate]
Test: NP40-soluble protein abundance relative to vehicle (solubility fold change) (ratio); higher = more soluble protein in presence of ATP
Outline: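 Eight concentrations, 0.1 to 10 mM, were tested on Jurkat crude lysate for 10 min at room temperature and then 3 min at 37 °C, in three independent experiments. The lysate was solubilised with 0.8% NP40 and benzonase, ultracentrifuged, and the supernatant TMT-labelled for LC-MS/MS. Each value is the fold change against the detergent-processed vehicle in its own replicate, from vsn-normalised intensities.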

Row | Target | NP40-soluble protein abundance (concentration: 0.1mM) | NP40-soluble protein abundance (concentration: 0.5mM) | NP40-soluble protein abundance (concentration: 1mM) | NP40-soluble protein abundance (concentration: 2mM) | NP40-soluble protein abundance (concentration: 4mM) | NP40-soluble protein abundance (concentration: 6mM) | NP40-soluble protein abundance (concentration: 8mM) | NP40-soluble protein abundance (concentration: 10mM)
1 | UniProt Q9H6W3 | 1.07 ± 0.069 | 1.14 ± 0.007 | 1.2 ± 0.019 | 1.25 ± 0.029 | 1.31 ± 0.063 | 1.46 ± 0.1 | 1.54 ± 0.11 | 1.73 ± 0.093
2 | UniProt Q9HDC9 | 1.02 ± 0.073 | 1.02 ± 0.075 | 1.03 ± 0.13 | 1 ± 0.11 | 0.936 ± 0.039 | 0.903 ± 0.13 | 0.953 ± 0.06 | 0.953 ± 0.079
3 | POLR3F (UniProt Q9H1D9) | 1.04 ± 0.039 | 0.984 ± 0.049 |  |  |  |  |  | 
